From patent US20230192839A1, “ANTIBODIES HAVING CONDITIONAL AFFINITY AND METHODS OF USE THEREOF” (PFIZER INC., priority 2017, published 2023)
Some entries share one result that the patent states for a list of compounds.

Columns and labels:
[1] = test system: human CD33; experiment: Biacore SPR binding kinetics of anti-CD33 scFv-Fc clones with or without 10 µM MTX
Text: The first 4 rounds of panning used biotinylated CD33 antigen captured on streptavidin or neutravidin coated 96-well plates. […] 1536 clones were randomly chosen from the 4th and 5th round of panning against the CD33 antigen and their binding specificity determined by phage ELISA. Clones that specifically bound to CD33 were sequenced and all unique clones were subjected to a phage competition ELISA to assess their relative affinities to CD33 and sensitivity to MTX by measuring their binding strengths in the presence or absence of 10 µM (micromolar) MTX (i.e. in 0 or 10 µM MTX).
(§1) All binding kinetics analysis was performed on label-free Biacore surface plasmon biosensors (Biacore T200™ from GE Life Sciences) at 37° C. in 10 mM Hepes pH 7.4, 150 mM NaCl, 0.05% Tween-20 (HBST+), with or without 10 µM MTX. The Biacore data were processed in Biacore T200 Evaluation Software, and the data were double-referenced (Myszka, 1999, J Mol Recognit 12(5):279-284) and fit globally to a simple Langmuir with mass transport model to determine the equilibrium dissociation constant, KD, from the ratio of the kinetic rate constants (KD = koff/kon). In some cases the binding of antigen was very low (or not detectable) in the presence of 10 µM MTX and as a result kinetic rate constants could not be accurately determined. […]

[2] = test system: human epidermal growth factor receptor (EGFR); experiment: Biacore SPR binding kinetics of anti-EGFR scFv-Fc clones with or without 10 µM MTX
Protocol: as §1, with “determined. In these cases, a KD (or KD limit) was estimated based on the binding response at the highest analyte concentration tested or based on the typical limit of detection for a Biacore T200.” for “determined.”

B1: P02_C02: anti-CD33 reference clone, less than 2-fold MTX effect; VH SEQ ID NO: 11, VL SEQ ID NO: 12 (antibody, V domains shown)
VH: QVQLVESGGGLVQAGGSLRLSCAASRRSSRSWAMHWVRQAPGKGLEWVAVISYDGRLKYYADSVKGRFTISRDNAEYLVYLQMNSLRAEDTAVYYCAAEGGMGLDPWGQGTLVTVSS
VL: DIQMTQSPSSLSASVGDRVTITCRASQTISSYLNWYQQKPGKAPKLLIYAASNLHSGVPSRFSGSGSGTDFTLTISSLQPEDFATYYCQQSYSSGTFGQGTKVEIK
modifications: Synthetic Antibody
difference in binding affinity at 0 µM MTX vs. 10 µM MTX [1]: less than 2 fold

B2: P01_B06: anti-EGFR reference clone, less than 2-fold MTX effect; VH SEQ ID NO: 129, VL SEQ ID NO: 130 (antibody, V domains shown)
VH: QVQLVESGGGLVQAGGSLRLSCAASRRSSRSWAMHWVRQAPGKGLEWVAVISYDGRLKYYADSVKGRFTISRDNAEYLVYLQMNSLRAEDTAVYYCAADTSMFASYDPMDVWGQGTLVTVSS
VL: QSVLTQPPSASGTPGQRVTISCSGSSSNIGRNYVNWYQQLPGTAPKLLIYRDDHRPSGVPDRFSGSKSGTSASLAISGLRSEDEADYYCASWDDTLSGWVFGTGTKLTVL
modifications: Synthetic Antibody
difference in binding affinity at 0 µM MTX vs. 10 µM MTX [2]: less than 2 fold
